Measurements as given in PMC11030540.
No constants are given. Whether binding was seen depends on the method and setting. In cells and extracts the contact can be indirect. A yes stands for co-enrichment or nearness to the bait. Other partners may have been found. Blank lines part the entries; values can stand above or below the molecule they belong to.

Amino acid sequences for entries named in this document (tags omitted).
UniProt Q92754: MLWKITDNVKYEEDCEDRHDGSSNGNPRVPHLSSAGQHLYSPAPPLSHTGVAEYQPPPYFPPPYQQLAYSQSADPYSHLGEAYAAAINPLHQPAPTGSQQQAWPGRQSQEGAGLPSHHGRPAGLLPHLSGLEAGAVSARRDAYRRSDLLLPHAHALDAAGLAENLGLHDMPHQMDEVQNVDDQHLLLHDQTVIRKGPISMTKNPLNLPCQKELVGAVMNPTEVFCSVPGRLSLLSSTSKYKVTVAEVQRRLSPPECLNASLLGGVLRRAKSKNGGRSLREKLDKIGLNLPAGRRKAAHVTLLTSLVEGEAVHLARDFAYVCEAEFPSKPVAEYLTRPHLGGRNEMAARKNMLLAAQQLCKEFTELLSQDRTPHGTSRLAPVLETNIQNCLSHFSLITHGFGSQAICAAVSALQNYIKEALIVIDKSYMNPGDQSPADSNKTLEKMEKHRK
UniProt O43143: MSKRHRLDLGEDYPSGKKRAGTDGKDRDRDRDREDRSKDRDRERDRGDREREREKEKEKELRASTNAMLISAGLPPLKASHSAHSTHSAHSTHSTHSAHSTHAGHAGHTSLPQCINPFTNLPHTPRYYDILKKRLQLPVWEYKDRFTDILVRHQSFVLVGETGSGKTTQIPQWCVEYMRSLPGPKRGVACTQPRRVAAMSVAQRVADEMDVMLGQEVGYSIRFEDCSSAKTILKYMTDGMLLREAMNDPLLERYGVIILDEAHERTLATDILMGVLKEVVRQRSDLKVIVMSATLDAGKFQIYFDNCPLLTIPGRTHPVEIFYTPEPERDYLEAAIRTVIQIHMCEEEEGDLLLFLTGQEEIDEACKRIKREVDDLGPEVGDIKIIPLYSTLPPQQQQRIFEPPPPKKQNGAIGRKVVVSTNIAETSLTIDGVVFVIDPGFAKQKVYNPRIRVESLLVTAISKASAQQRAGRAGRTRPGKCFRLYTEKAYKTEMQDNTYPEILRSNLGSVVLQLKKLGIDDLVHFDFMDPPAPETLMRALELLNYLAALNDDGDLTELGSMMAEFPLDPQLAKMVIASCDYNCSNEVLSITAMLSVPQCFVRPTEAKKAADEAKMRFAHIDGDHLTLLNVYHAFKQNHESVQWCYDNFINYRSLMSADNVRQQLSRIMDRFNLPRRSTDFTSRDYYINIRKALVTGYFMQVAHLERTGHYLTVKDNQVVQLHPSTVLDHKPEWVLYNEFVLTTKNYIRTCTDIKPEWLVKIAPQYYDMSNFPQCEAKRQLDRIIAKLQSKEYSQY
UniProt Q92769: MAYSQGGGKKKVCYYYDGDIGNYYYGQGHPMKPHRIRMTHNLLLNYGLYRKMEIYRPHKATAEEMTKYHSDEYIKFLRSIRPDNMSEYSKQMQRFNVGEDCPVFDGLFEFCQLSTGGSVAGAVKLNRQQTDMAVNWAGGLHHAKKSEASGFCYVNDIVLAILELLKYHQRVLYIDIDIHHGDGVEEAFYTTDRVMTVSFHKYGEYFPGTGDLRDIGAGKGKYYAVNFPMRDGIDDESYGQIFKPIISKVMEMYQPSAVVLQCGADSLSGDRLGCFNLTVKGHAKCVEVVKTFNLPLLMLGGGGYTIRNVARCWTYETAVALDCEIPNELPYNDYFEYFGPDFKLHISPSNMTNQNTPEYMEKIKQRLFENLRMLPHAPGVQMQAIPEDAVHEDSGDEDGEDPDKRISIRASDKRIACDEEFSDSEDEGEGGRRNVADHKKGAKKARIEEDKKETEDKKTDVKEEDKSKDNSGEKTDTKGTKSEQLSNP
UniProt P62318: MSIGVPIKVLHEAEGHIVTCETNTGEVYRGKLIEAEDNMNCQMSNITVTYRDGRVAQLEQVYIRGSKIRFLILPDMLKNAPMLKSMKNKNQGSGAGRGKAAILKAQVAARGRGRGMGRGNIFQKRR
UniProt P62304: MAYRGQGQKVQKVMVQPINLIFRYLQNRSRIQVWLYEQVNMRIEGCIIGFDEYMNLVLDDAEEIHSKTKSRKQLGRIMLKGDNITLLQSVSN
UniProt Q13547: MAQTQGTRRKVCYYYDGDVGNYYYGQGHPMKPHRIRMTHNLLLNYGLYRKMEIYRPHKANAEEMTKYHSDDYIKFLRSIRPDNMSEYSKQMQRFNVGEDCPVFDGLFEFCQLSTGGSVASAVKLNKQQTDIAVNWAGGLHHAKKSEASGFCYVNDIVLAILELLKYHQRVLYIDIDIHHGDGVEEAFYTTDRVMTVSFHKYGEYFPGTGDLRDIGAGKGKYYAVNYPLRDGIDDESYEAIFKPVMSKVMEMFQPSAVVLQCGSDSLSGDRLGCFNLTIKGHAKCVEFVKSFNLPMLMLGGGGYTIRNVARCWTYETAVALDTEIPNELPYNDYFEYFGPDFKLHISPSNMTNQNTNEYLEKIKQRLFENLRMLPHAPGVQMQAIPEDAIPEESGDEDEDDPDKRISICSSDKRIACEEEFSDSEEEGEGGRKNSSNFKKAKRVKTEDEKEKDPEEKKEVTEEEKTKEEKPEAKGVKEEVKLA
UniProt O75533: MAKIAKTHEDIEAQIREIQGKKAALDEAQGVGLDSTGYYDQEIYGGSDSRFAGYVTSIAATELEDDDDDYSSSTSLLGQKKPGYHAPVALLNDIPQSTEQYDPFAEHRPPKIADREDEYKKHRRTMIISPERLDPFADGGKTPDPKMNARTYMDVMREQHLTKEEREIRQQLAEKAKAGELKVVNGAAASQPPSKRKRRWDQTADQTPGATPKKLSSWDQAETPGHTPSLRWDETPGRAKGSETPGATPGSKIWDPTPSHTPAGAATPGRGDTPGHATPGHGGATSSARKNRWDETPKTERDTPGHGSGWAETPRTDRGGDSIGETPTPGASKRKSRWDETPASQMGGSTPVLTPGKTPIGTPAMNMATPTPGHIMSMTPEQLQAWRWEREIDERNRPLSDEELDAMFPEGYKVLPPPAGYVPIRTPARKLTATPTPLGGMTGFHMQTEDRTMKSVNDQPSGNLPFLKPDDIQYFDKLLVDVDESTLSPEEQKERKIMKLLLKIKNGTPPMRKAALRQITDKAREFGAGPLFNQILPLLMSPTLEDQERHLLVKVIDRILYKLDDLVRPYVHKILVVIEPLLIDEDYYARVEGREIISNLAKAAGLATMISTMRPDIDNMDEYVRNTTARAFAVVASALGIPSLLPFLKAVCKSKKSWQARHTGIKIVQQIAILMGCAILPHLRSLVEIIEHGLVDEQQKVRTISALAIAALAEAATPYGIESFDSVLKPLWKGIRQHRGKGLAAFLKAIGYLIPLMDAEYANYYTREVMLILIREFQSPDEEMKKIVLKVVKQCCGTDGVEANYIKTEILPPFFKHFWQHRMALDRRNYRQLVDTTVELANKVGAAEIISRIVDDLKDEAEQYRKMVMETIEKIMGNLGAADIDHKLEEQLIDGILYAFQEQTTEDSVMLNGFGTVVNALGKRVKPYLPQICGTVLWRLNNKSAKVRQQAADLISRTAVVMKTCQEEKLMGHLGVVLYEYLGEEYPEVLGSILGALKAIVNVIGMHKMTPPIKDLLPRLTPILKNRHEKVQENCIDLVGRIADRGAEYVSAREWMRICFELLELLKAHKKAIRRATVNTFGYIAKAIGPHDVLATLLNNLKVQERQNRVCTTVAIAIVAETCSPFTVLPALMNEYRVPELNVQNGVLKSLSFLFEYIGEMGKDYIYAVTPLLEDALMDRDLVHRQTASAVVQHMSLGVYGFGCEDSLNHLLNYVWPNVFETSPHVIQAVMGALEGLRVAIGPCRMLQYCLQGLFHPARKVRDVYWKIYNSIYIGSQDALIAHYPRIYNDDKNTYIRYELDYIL
UniProt O75643: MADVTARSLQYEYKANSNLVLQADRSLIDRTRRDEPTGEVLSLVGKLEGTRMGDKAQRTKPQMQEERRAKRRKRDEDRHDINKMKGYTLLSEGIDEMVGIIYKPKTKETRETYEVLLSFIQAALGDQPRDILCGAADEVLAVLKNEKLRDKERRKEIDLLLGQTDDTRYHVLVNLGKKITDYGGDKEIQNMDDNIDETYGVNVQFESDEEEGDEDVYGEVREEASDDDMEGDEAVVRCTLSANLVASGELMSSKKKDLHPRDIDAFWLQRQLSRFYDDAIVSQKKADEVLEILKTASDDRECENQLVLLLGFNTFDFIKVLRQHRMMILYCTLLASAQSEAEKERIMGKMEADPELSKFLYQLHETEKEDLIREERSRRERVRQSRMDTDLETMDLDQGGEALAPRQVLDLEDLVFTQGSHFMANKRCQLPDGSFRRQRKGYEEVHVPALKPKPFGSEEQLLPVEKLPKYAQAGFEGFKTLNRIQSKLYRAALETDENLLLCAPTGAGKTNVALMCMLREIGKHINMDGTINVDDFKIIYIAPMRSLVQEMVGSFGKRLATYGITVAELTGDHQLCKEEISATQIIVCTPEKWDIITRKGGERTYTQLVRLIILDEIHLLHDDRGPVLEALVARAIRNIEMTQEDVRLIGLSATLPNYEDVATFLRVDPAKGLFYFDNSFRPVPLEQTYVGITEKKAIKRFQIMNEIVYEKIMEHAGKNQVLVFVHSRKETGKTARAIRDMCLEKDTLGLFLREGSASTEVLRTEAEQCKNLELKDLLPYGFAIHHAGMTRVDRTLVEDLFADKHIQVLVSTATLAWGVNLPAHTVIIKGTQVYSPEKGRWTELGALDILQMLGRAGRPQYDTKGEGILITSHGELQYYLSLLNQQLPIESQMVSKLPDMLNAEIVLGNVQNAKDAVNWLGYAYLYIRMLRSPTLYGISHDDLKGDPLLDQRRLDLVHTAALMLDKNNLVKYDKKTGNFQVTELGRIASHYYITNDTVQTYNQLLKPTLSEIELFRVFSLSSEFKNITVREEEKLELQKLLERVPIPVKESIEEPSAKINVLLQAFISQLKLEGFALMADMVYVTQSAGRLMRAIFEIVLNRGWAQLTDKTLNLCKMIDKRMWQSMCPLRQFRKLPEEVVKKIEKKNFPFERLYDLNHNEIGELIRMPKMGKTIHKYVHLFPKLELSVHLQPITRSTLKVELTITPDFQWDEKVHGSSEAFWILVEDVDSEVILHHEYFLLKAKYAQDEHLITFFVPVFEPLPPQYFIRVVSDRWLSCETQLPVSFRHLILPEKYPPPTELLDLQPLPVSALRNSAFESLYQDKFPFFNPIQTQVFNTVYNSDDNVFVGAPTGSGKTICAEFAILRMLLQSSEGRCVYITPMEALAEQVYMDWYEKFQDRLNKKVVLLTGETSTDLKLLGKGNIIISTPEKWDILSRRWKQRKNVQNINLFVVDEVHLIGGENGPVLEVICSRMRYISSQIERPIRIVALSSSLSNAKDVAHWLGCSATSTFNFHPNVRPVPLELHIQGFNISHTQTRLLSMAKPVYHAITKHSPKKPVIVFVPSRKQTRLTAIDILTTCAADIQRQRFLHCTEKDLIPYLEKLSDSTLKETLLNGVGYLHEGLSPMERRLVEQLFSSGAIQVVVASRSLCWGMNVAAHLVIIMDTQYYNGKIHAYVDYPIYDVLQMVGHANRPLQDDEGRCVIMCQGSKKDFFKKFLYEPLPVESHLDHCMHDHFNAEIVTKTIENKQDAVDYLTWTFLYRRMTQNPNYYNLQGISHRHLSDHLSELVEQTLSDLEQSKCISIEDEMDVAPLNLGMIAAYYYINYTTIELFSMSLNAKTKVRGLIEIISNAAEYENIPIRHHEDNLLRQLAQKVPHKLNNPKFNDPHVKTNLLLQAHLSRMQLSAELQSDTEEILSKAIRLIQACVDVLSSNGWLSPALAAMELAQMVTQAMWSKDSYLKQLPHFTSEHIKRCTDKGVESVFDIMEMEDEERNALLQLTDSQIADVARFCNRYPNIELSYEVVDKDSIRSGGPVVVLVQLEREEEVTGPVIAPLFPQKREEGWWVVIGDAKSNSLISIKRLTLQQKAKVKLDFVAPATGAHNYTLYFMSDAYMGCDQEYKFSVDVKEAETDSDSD
UniProt P62316: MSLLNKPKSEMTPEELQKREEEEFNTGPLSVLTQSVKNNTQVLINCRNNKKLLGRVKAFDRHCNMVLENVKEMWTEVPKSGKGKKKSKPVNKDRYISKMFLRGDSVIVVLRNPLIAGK
UniProt P62308: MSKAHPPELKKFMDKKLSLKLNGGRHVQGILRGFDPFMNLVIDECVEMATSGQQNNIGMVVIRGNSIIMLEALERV

Molecular target: HA-tagged TFAP2C (UniProt Q92754)
Experiment: affinity purification with mass spectrometry; anti-HA immunoprecipitation of HA-TFAP2C from benzonase-released chromatin-bound fractions of HCT116-Tet-On-shUBA2 cells, without and with Dox (UBA2 knockdown); untransfected cells as control; binding buffer with 0.25 M NaCl and 0.5% Triton X-100, 4°C; gel bands analysed by LC-MS/MS

binding: binds
Molecule: DDX23 (from UniProt Q9BUQ8 1-820)

binding: binds
Molecule: DHX15 (from UniProt O43143 1-795)

binding: binds
Molecule: HDAC2 (from UniProt Q92769 1-488) (enzyme)

binding: binds
Molecule: SNRPD3 (from UniProt P62318 1-126)

binding: binds
Molecule: SNRPE (from UniProt P62304 1-92)

binding: binds
B1: PLRG1 (protein, UniProt O43660 1-514)
chain: MVEEVQKHSVHTLVFRSLKRTHDMFVADNGKPVPLDEESHKRKMAIKLRNEYGPVLHMPTSKENLKEKGPQNATDSYVHKQYPANQGQEVEYFVAGTHPYPPGPGVALTADTKIQRMPSESAAQSLAVALPLQTKADANRTAPSGSEYRHPGASDRPQPTAMNSIVMETGNTKNSALMAKKAPTMPKPQWHPPWKLYRVISGHLGWVRCIAVEPGNQWFVTGSADRTIKIWDLASGKLKLSLTGHISTVRGVIVSTRSPYLFSCGEDKQVKCWDLEYNKVIRHYHGHLSAVYGLDLHPTIDVLVTCSRDSTARIWDVRTKASVHTLSGHTNAVATVRCQAAEPQIITGSHDTTIRLWDLVAGKTRVTLTNHKKSVRAVVLHPRHYTFASGSPDNIKQWKFPDGSFIQNLSGHNAIINTLTVNSDGVLVSGADNGTMHLWDWRTGYNFQRVHAAVQPGSLDSESGIFACAFDQSESRLLTAEADKTIKVYREDDTATEETHPVSWKPEIIKRKRF

binding: binds
B2: CWC27 (protein, UniProt Q6UX04 1-472)
chain: MSNIYIQEPPTNGKVLLKTTAGDIDIELWSKEAPKACRNFIQLCLEAYYDNTIFHRVVPGFIVQGGDPTGTGSGGESIYGAPFKDEFHSRLRFNRRGLVAMANAGSHDNGSQFFFTLGRADELNNKHTIFGKVTGDTVYNMLRLSEVDIDDDERPHNPHKIKSCEVLFNPFDDIIPREIKRLKKEKPEEEVKKLKPKGTKNFSLLSFGEEAEEEEEEVNRVSQSMKGKSKSSHDLLKDDPHLSSVPVVESEKGDAPDLVDDGEDESAEHDEYIDGDEKNLMRERIAKKLKKDTSANVKSAGEGEVEKKSVSRSEELRKEARQLKRELLAAKQKKVENAAKQAEKRSEEEEAPPDGAVAEYRREKQKYEALRKQQSKKGTSREDQTLALLNQFKSKLTQAIAETPENDIPETEVEDDEGWMSHVLQFEDKSRKVKDASMQDSDTFEIYDPRNPVNKRRREESKKLMREKKERR

Continued, molecule first:

Molecule: CDC5L (from UniProt Q99459 1-802)
binding: binds

Molecule: HDAC1 (from UniProt Q13547 1-482) (enzyme)
binding: binds

Molecule: SF3B1 (from UniProt O75533 1-1304)
binding: binds

Molecule: SF3B3 (from UniProt Q15393 1-1217)
binding: binds

Molecule: SNRNP200 (from UniProt O75643 1-2136)
binding: binds

Molecule: SNRPD2 (from UniProt P62316 1-118)
binding: binds

Molecule: SNRPG (from UniProt P62308 1-76)
binding: binds
